Values from PubChem BioAssay AID504808 (Drosophila RNAi Screening Center, 2011).

- Test: 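Genes whose loss lifts activity of an E2F-responsive reporter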 (primary screen)
- Cell system: Drosophila S2 cells
- Knock-down reagent: long dsRNA against Drosophila genes
- Read-out: 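Dual luciferase plate measurements; E2F-specific signal taken as firefly over Renilla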
- Scale: E2F firefly: higher = more E2F reporter activity; Renilla normaliser: higher = more normaliser reporter signal
- Call rule: 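Called active if the normalised E2F reporter went up by over 50%; the cutoff is arbitrary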
The screen tested about 21,000 reagents; shown is a random part of those that have a named target and a result. In the full data, 18 (0.084%) got an active call. 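Raw counts without plate normalisation, one of two replicates; the ratio scores behind the calls were not deposited.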 Entries without a mark were called inactive. Not given: the amount of reagent, the time to read-out.

| gene | PubChem SID | E2F firefly, rep 1 | Renilla normaliser, rep 1 |
| --- | --- | --- | --- |
| CG2111 | SID104197997 | 1.34e5 | 5649 |
| CG3184 | SID104198081 | 8019 | 800 |
| CG3223 | SID104195260 | 1.26e5 | 6416 |
| CG3650 | SID104184193 | 1.01e5 | 4268 |
| CG15225 | SID104184024 | 1.07e5 | 4485 |
| CG13999 | SID104182123 | 1.51e5 | 5337 |
| Obp73a (Odorant-binding protein 73a) | SID104189699 | 1.53e5 | 7771 |
| Vmat (Vesicular monoamine transporter) | SID104186753 | 2862 | 203 |
| Vmat (Vesicular monoamine transporter) | SID104186754 | 1.03e5 | 4192 |
| Cyp9h1 (Cytochrome P450 9h1) | SID104187183 | 97856 | 3723 |
| Tsp (Thrombospondin) | SID104181936 | 1.05e5 | 3890 |
| Tsp (Thrombospondin) | SID104181937 | 1.46e5 | 5103 |
| alpha4GT1 (alpha1,4-galactosyltransferase 1) | SID104180280 | 85417 | 3450 |
| CG32407 | SID104189581 | 81960 | 3363 |
| Cyp4ad1 (Cytochrome P450 4ad1) | SID104187161 | 2750 | 252 |
| CG18745 | SID104195174 | 1.48e5 | 7619 |
| clumsy | SID104182903 | 1.00e5 | 3774 |
| CG2126 | SID104195210 | 1.22e5 | 5005 |
| Ripalpha (RPA-interacting protein alpha) | SID104182449 | 1.49e5 | 5073 |
| dsh (dishevelled) | SID104199595 | 1.23e5 | 5897 |
| Smyd5 (SET and MYND domain containing, class 5) | SID104195275 | 98521 | 5068 |
| nmo (nemo) | SID104188694 | 1.35e5 | 5094 |
| nmo (nemo) | SID104191169 | 80531 | 3652 |
| Tbcc (Tubulin-binding cofactor C) | SID104180015 | 1.36e5 | 5514 |
| dally (division abnormally delayed) | SID104188746 | 1.34e5 | 4416 |
| dally (division abnormally delayed) | SID104191130 | 76394 | 3640 |
| Dhrs4 (Dehydrogenase/reductase 4) | SID104189565 | 73080 | 131 |
| Duox (Dual oxidase) | SID104180363 | 1.72e5 | 5608 |
| Syx13 (Syntaxin 13) | SID104189628 | 1.17e5 | 7012 |
| CG17129 | SID104188300 | 84309 | 3128 |
| fra (frazzled) | SID104187413 | 96622 | 4038 |
| Nprl2 (Nitrogen permease regulator-like 2) | SID104199945 | 1.45e5 | 5826 |
| unc-5 | SID104185337 | 1.35e5 | 5096 |
| unc-5 | SID104187503 | 94631 | 3835 |
| unc-5 | SID104187504 | 1.03e5 | 4541 |
